Measurements as given in paper PMC7226812.
These are yes or no findings as the source states them, for the method shown. Binding seen in cells or lysates may run through a third protein. Some entries that bind do so weakly or less than the wild type.

The chains behind the UniProt entries cited, without tags or fusion partners.
UniProt Q13619: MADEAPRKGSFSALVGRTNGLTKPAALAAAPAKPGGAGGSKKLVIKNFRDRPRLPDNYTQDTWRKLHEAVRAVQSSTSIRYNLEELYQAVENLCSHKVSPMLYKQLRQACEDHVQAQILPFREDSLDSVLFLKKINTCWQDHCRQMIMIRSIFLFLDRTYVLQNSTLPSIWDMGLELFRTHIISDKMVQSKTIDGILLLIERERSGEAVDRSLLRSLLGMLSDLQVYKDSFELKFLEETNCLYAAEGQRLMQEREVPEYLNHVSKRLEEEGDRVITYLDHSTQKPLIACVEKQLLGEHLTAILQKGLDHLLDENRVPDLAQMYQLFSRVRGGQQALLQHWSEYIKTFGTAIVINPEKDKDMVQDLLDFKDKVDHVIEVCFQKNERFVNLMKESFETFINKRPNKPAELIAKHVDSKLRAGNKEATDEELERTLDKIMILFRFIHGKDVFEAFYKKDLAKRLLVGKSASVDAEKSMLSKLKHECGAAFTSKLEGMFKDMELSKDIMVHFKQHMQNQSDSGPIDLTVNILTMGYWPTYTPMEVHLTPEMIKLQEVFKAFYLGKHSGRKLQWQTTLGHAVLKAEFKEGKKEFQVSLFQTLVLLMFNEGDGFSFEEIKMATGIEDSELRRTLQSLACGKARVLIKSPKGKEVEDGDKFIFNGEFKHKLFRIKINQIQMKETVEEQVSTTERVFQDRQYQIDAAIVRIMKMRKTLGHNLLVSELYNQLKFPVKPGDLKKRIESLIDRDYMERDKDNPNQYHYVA
UniProt Q16531: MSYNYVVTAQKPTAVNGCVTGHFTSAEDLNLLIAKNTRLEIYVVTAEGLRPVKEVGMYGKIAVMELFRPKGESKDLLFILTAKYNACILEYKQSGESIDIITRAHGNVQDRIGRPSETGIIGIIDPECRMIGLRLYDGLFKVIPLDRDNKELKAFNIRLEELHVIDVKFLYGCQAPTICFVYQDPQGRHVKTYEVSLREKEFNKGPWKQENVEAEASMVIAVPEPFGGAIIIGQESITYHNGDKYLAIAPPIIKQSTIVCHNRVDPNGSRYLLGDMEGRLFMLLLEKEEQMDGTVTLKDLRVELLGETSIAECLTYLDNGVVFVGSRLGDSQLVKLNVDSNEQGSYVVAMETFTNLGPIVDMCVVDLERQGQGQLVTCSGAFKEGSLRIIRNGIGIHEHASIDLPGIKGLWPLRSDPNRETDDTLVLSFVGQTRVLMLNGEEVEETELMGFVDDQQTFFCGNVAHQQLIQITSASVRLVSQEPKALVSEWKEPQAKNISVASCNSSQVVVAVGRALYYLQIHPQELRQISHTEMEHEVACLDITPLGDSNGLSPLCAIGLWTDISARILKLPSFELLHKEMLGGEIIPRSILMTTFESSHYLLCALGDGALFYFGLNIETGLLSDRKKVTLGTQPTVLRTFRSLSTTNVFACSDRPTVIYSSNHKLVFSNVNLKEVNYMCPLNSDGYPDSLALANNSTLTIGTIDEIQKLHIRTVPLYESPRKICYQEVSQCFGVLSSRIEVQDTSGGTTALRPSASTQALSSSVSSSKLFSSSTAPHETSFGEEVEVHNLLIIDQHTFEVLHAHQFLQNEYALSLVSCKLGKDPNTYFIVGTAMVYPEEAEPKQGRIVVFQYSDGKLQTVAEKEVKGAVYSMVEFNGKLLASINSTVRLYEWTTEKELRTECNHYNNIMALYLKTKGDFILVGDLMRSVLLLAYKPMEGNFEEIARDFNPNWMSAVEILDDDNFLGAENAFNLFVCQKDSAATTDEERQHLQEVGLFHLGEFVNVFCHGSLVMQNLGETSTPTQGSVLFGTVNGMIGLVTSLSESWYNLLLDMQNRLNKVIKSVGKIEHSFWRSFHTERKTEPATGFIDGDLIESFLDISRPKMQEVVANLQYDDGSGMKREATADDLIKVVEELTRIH

Tests used:
myc-tagged CUL4A = myc-tagged CUL4A (UniProt Q13619); test: co-IP
[1] = biological target: DDB1 (plasmid-transfected cells) (UniProt Q16531); test: co-IP

Row | Substance | binding (myc-tagged CUL4A) | binding [1]
1 | 2HA-tagged DCAF8 (from UniProt Q5TAQ9-1 1-597) | binds | binds
2 | 2HA-tagged DCAF11 (from UniProt Q8TEB1-1 1-546) | binds | binds
3 | 2HA-tagged cereblon (from UniProt Q96SW2-1 1-442) | binds | –
